Results from publication PMC12276006, “Structural basis for sensitivity and acquired resistance of fungal cap guanine-N7 methyltransferases to the antifungal antibiotic sinefungin” (Nucleic Acids Research, 2025).
No constants are given. Whether binding was seen depends on the method and setting.

Chains of the proteins cited; added tags and fusions are not shown. Lines headed by an entry give the natural chain unless they say otherwise; changes in a name come on top.
UniProt P32783: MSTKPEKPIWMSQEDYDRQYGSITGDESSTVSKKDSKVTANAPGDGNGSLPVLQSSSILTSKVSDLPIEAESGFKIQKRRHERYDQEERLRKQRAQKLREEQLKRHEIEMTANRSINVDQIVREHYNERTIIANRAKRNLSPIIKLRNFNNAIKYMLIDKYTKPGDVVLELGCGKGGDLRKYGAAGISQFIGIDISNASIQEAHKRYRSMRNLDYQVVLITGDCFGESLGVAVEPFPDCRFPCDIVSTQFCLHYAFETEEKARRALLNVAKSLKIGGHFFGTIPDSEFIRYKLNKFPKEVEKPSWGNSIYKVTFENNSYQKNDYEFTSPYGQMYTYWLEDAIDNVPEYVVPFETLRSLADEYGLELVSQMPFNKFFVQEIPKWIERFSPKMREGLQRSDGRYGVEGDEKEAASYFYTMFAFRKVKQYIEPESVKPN
UniProt Q6CKI0: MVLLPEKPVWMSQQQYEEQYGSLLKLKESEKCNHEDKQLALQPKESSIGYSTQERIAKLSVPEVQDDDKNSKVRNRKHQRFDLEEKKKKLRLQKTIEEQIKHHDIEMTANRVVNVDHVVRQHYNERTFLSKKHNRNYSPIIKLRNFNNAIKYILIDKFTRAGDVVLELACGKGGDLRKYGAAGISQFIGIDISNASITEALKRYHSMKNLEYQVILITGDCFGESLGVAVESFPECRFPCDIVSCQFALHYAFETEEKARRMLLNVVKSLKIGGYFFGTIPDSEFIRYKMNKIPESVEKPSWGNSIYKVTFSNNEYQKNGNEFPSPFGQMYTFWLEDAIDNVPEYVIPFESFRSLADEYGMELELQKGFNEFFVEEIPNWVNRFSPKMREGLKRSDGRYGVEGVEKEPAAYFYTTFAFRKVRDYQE

How the values were obtained:
Assay in all cases: SEC; analytical size exclusion chromatography, Superdex S200 (10/300), 20 mM HEPES pH 7.5, 150 mM NaCl, 5 mM βME, 0.75 ml/min, calibrated with Bio-Rad gel filtration standards; both purified
[1] = target: ScAbd1-(141-436) (Saccharomyces cerevisiae) (UniProt P32783)
[2] = target: ScAbd1-Y416A, His10 fusion (Saccharomyces cerevisiae) (UniProt P32783)
[3] = target: ScAbd1-E124K-K163R-K311R-F387Y-Y416F, His10 fusion (Saccharomyces cerevisiae) (UniProt P32783)
[4] = target: KlAbd1-(138-426) (Kluyveromyces lactis) (UniProt Q6CKI0)
[5] = target: Kluyveromyces lactis cap methyltransferase Abd1, full length (aa 1-426) (Kluyveromyces lactis) (UniProt Q6CKI0)
[6] = target: KlAbd1-(117-426) (Kluyveromyces lactis) (UniProt Q6CKI0)
[7] = target: Saccharomyces cerevisiae cap methyltransferase Abd1, wild type, His10 fusion (aa 1-436) (Saccharomyces cerevisiae) (UniProt P32783)
[8] = target: ScAbd1-(120-436) (Saccharomyces cerevisiae) (UniProt P32783)
[9] = target: ScAbd1-Y416N-R422H, His10 fusion (Saccharomyces cerevisiae) (UniProt P32783)
[10] = target: ScAbd1-L59P-Y416C, His10 fusion (Saccharomyces cerevisiae) (UniProt P32783)

With “ScAbd1-(141-436) (from UniProt P32783 141-436) (domain or fragment)” the binding [1] was “no binding”.

In the case of “ScAbd1-Y416A, His10 fusion (from UniProt P32783 1-436) (enzyme)”, the binding [2] was “no binding”.

“ScAbd1-E124K-K163R-K311R-F387Y-Y416F, His10 fusion (from UniProt P32783 1-436) (enzyme)” was tested, and the binding [3] was “no binding”.

In the case of “KlAbd1-(138-426) (from UniProt Q6CKI0 138-426) (domain or fragment)”, the binding [4] was “no binding”.

“Kluyveromyces lactis cap methyltransferase Abd1, full length (aa 1-426) (from UniProt Q6CKI0 1-426) (enzyme)” was tested, and the binding [5] was “no binding”.

For “KlAbd1-(117-426) (from UniProt Q6CKI0 117-426) (domain or fragment)”, the binding [6] was “no binding”.

For “Saccharomyces cerevisiae cap methyltransferase Abd1, wild type, His10 fusion (aa 1-436) (from UniProt P32783 1-436) (enzyme)”, the binding [7] was “no binding”.

“ScAbd1-(120-436) (from UniProt P32783 120-436) (domain or fragment)” was tested, and the binding [8] was “no binding”.

In the case of “ScAbd1-Y416N-R422H, His10 fusion (from UniProt P32783 1-436) (enzyme)”, the binding [9] was “no binding”.

With “ScAbd1-L59P-Y416C, His10 fusion (from UniProt P32783 1-436) (enzyme)” the binding [10] was “no binding”.
